Some results were stated once for a whole list of compounds, not compound by compound.
Key:
[1] = test system: proliferating hemangioma cells; experiment: Experiment 7: different ACEi and beta blockers on one primary cell line, MTT; assay type: cell-based, human; conditions: racemic mixture or single enantiomers
Experimental: An in vitro cell culture model of infantile hemangioma was developed to assess the impact of renin-angiotensin system inhibitors on cellular proliferation. A primary cell line of proliferating infantile hemangioma cells, including haemangioma stem cells, was derived from a tissue biopsy obtained from patients during the proliferating phase of the disease. The primary cell lines are cultured in 25 cm^2 flasks using standard culture media and conditions. The cultured cells are used to seed 96-well plates with a seed cell concentration of 2500 or 5000 cells per well, with additional culture media (200 μL). All studies are performed in triplicate.
The plates are incubated overnight to allow cell adherence to the wells. The wells are photographed to confirm cell adherence and confluency. The appropriate drug(s) to be examined are subsequently added to the wells. […] The media is aspirated from each well and stored frozen for possible future analyses. […]
From the triplicate incubations of each drug concentration at each time, as well as for all controls, the mean±standard deviation is calculated. The net survival (optical density value) is calculated by subtracting the appropriate blank mean value from each cell culture. From the MTT data, the percentage of survival of cells in the presence of each concentration of drug after each time of culturing is determined. […]

[2] = pH 7.4; cited from earlier work

Row | Compound | level of inhibition [1] | solubility [2] [mg/mL]
1 | CC(C)NCC(O)COc1cccc2ccccc12 (racemic) [(±) Propranolol, Propranolol] | 45%-57% | 
2 | CC(C)(C)NC[C@H](O)COc1nsnc1N1CCOCC1 [Timolol] | 45%-57% | 
3 | carboxyfluorescein |  | > 100
